Values from PubChem BioAssay AID1259425 (University of Nebraska Medical Center, 2018).

Aim: 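Compare each knockdown with KSR1 silencing using changes in marker transcripts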 (primary screen)
Cell system: HCT116 human colon cancer cells
Reagents: siRNA pool against human genes, 50 nM siRNA
Measurement: 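After 50 nM siRNA pool, branched-DNA assay measures six marker transcripts per well, minus blank, normalised to the geometric mean of two housekeeping transcripts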
Reading the numbers: BNIP3L mRNA: higher = more BNIP3L transcript after knockdown; NDRG1 mRNA: higher = more NDRG1 transcript after knockdown; BNIP3 mRNA: higher = more BNIP3 transcript after knockdown; ALDOC mRNA: higher = more ALDOC transcript after knockdown; ACSL5 mRNA: higher = more ACSL5 transcript after knockdown
Here is one part, drawn at random, of about 14,000 reagents. The record does not give: the time to read-out.

gene knocked down	BNIP3L mRNA, set 1	NDRG1 mRNA, set 1	BNIP3 mRNA, set 1	ALDOC mRNA, set 1	ACSL5 mRNA, set 1
VWF (von Willebrand factor)	0.13	0.212	0.389	0.0195	0.387
PNLIPRP1 (pancreatic lipase related protein 1)	0.112	0.181	0.32	0.0212	0.284
SLC7A14	0.106	0.164	0.349	0.0185	0.0726
PDLIM7 (PDZ and LIM domain 7)	0.0717	0.0778	0.276	0.019	0.137
PCED1A (PC-esterase domain containing 1A)	0.117	0.13	0.38	0.0255	0.164
SFT2D3 (SFT2 domain containing 3)	0.238	0.562	0.45	0.0604	0.243
KRT86 (keratin 86)	0.0598	0.146	0.238	0.0116	0.147
CA4 (carbonic anhydrase 4)	0.0574	0.122	0.265	0.0232	0.197
DSC2 (desmocollin 2)	0.103	0.129	0.419	0.00977	0.175
LIN37 (lin-37 DREAM MuvB core complex component)	0.138	0.282	0.168	0.00651	0.148
GPRC5C (G protein-coupled receptor class C group 5 member C)	0.154	0.318	0.394	0.0645	0.353
PLK2 (polo like kinase 2)	0.132	0.264	0.187	0.00322	0.191
ELOVL5 (ELOVL fatty acid elongase 5)	0.0857	0.0482	0.207	0.0226	0.335
CYP2D6	0.187	0.458	0.18	0.0488	0.234
KCNE4	0.0971	0.413	0.605	0.0222	0.301
CALCOCO2 (calcium binding and coiled-coil domain 2)	0.109	0.114	0.351	0.0193	0.123
SLC20A1	0.0592	0.0462	0.284	0.0103	0.108
ATF1 (activating transcription factor 1)	0.121	0.207	0.25	0.0228	0.189
RAB7A (RAB7A, member RAS oncogene family)	0.125	0.204	0.261	0.0431	0.184
KRI1 (KRI1 homolog)	0.0914	0.162	0.268	0.034	0.293
SEPHS1 (selenophosphate synthetase 1)	0.23	0.384	0.524	0.0488	0.362
MTMR11 (myotubularin related protein 11)	0.16	0.289	0.38	0.0368	0.175
GUCY1B1 (guanylate cyclase 1 soluble subunit beta 1)	0.0653	0.117	0.174	0.0298	0.117
CAMSAP3	0.105	0.543	0.379	0.00992	0.163
CCDC174 (coiled-coil domain containing 174)	0.116	0.173	0.367	0.0228	0.0667
MPZL2 (myelin protein zero like 2)	0.0773	0.2	0.268	0.0298	0.247
HBQ1 (hemoglobin subunit theta 1)	0.153	0.109	0.395	0.0213	0.092
CXCL6 (C-X-C motif chemokine ligand 6)	0.132	0.288	0.241	0.0316	0.195
FKBP4 (FKBP prolyl isomerase 4)	0.123	0.151	0.22	0.045	0.281
EDN3 (endothelin 3)	0.0741	0.0775	0.283	0.0524	0.1
TECPR2 (tectonin beta-propeller repeat containing 2)	0.145	0.938	0.263	0.0333	0.215
EFNA5 (ephrin A5)	0.0949	0.365	0.23	0.0302	0.127
PTPN20 (protein tyrosine phosphatase non-receptor type 20)	0.103	0.146	0.515	0.0382	0.103
IDH3A (isocitrate dehydrogenase (NAD(+)) 3 catalytic subunit alpha)	0.0938	0.035	0.208	0.0237	0.0393
NEK9 (NIMA related kinase 9)	0.113	0.0788	0.247	0.00132	0.332
CDK7 (cyclin dependent kinase 7)	0.136	0.511	0.551	0.00895	0.321
GK2 (glycerol kinase 2)	0.0704	0.0393	0.229	0.00991	0.11
EFNB2 (ephrin B2)	0.0598	0.0707	0.173	0.0143	0.18
RASGRF1 (Ras protein specific guanine nucleotide releasing factor 1)	0.236	0.272	0.273	0.0859	0.117
SLC18A3	0.107	0.231	0.45	0.037	0.116
LRRC17 (leucine rich repeat containing 17)	0.143	0.178	0.431	0.0293	0.0607
CDC23 (cell division cycle 23)	0.0668	0.0355	0.174	0.00359	0.205
GRAP (GRB2 related adaptor protein)	0.0703	0.272	0.284	0.0234	0.143
STX10 (syntaxin 10)	0.0536	0.171	0.187	0.0251	0.134
NPDC1 (neural proliferation, differentiation and control 1)	0.0964	0.14	0.468	0.033	0.189
PPP1R17 (protein phosphatase 1 regulatory subunit 17)	0.164	0.112	0.457	0.0111	0.415
ZNF302 (zinc finger protein 302)	0.0856	0.131	0.469	0.0375	0.21
FLNA (filamin A)	0.181	0.241	0.655	0.0356	0.467
PXK (PX domain containing serine/threonine kinase like)	0.0753	0.111	0.35	0.00319	0.299
GNA13 (G protein subunit alpha 13)	0.356	0.226	0.639	0.0969	0.216
NFIL3 (nuclear factor, interleukin 3 regulated)	0.0802	0.185	0.368	0.0134	0.117
ATP8A1 (ATPase phospholipid transporting 8A1)	0.183	0.14	0.36	0.0702	0.166
TMCO1 (transmembrane and coiled-coil domains 1)	0.104	0.116	0.386	0.026	0.108
LY6G5C (lymphocyte antigen 6 family member G5C)	0.189	0.135	0.426	0.043	0.225
EPG5 (ectopic P-granules 5 autophagy tethering factor)	0.279	0.614	0.498	0.085	0.148
ZBTB40 (zinc finger and BTB domain containing 40)	0.092	0.136	0.406	0.0155	0.227
MYO3B (myosin IIIB)	0.106	0.0357	0.2	0.0224	0.169
GNA15 (G protein subunit alpha 15)	0.226	0.193	0.302	0.023	0.222
ASCC1 (activating signal cointegrator 1 complex subunit 1)	0.0977	0.163	0.493	0.0505	0.258
GSTM4 (glutathione S-transferase mu 4)	0.0729	0.413	0.308	0.0803	0.0918
SMPD2 (sphingomyelin phosphodiesterase 2)	0.218	0.485	0.432	0.0971	0.227
H4C4 (H4 clustered histone 4)	0.0756	0.137	0.193	0.0282	0.0731
C6 (complement C6)	0.133	0.178	0.328	0.0122	0.0758

Not a retest: entries from further up.
gene knocked down	BNIP3L mRNA, set 1	NDRG1 mRNA, set 1	BNIP3 mRNA, set 1	ALDOC mRNA, set 1	ACSL5 mRNA, set 1
EPG5 (ectopic P-granules 5 autophagy tethering factor)	0.279	0.614	0.498	0.085	0.148
ZBTB40 (zinc finger and BTB domain containing 40)	0.092	0.136	0.406	0.0155	0.227
MYO3B (myosin IIIB)	0.106	0.0357	0.2	0.0224	0.169
GNA15 (G protein subunit alpha 15)	0.226	0.193	0.302	0.023	0.222
ASCC1 (activating signal cointegrator 1 complex subunit 1)	0.0977	0.163	0.493	0.0505	0.258
